Data: patent US20100021940A1, “Method for Determining the Activity of a Protease in a Sample” (ASTRAZENECA AB, priority 2006, published 2010)
Values joined by “and” are separate entries in the source; they are usually repeats but may differ in a detail not shown here. Equal values may be shown once. The source gives many values for each of these; only a part stands here.

System: MMP9
Assay: MMP9 activity in whole blood via 4-nitroaniline in plasma after zymosan stimulation (LC-MS)
Format: biochemical, human
Settings: individual subjects, substrate 10 μM in plasma, 37° C., 60 min
Description: Samples of heparinised whole blood (1 mL) were stimulated with Zymosan (0, 50, 300, 600, 900 and 1200 μg/mL), vortexed or and incubated at 37° C. for 15 minutes. Plasma was collected after centrifugation, mixed with the substrate (10 μM) and incubated at 37° C. for 60 minutes. Methanol (300 μL), with (^13C)6-4-nitroaniline (1 μM) as internal standard, was added to a 100 μL aliquot of the above mixture and centrifuged to remove precipitated proteins. The supernatant (100 μL) was diluted with water (100 μL) and the extracts was injected directly onto a HPLC column.
Thaw, as required, pooled control human plasma, quality control and test samples. Add methyl 1-acetyl-L-prolyl-L-leucylglycyl-α-R-(4-nitrophenylamino)-glycyl-L-leucyl-β-alaninate (2 μL, solution D) to test plasma sample (200 μL) in 2 mL screw cap microtubes and mix on a vortex mixer.
Incubate tubes for 60 minutes at 37° C. in a shaking water bath. Prepare the calibration samples in plasma as detailed in Table 1 during the 60 minute incubation of test samples in step 3. Mix the samples on a vortex mixer.
Manually dispense aliquots (100 μL) of each plasma sample into separate wells of a 96 deep-well 2 mL plate using an appropriate pipette. (Note: start pipetting calibration, quality control and blank samples approximately 10 minutes before the test samples have finished their incubation in step 3). Dispense internal standard in methanol (300 μL) into each well using the Tecan. Cover the plate with polystyrene cover. Centrifuge at 3000 rpm for 5 minutes at room temperature.
Transfer an aliquot (100 μL) of the sample supernatant into separate wells of a 96 deep-well 2 mL plate using the Tecan. Mix water (100 μL) with each sample in the wells of a 96 deep-well polypropylene plate using the Tecan. Cover plate with pre-spilt 96 well seal.
Analyse 10 μL aliquots by LC/MS.
Whole blood samples were stimulated with varying concentrations of zymosan (0, 50, 300, 600, 900 and 1200 μg/mL). Plasma sample obtained from the stimulated whole blood samples were mixed with the substrate methyl 1-acetyl-L-prolyl-L-leucylglycyl-α-R-(4-nitrophenylamino)-glycyl-L-leucyl-β-alaninate at a plasma concentration of 10 μM and the samples were then incubated at 37° C. for 60 minutes. Aliquots (100 μL) of the human plasma were mixed with methanol (300 μL) containing [^13C]6-4-nitroaniline as an internal standard to precipitate the proteins and the sample was centrifuged and supernatants (100 μL) were mixed with water (100 μL). The extracts 10 μL were injected directly onto a Phenomenex Luna phenyl-hexyl column (50×2.0 mm, 5 μm) and the compounds eluted with a gradient mobile phase consisting of 0.01% ammonia/methanol. 4-nitroaniline was resolved from endogenous plasma constituents and the HPLC effluent was directed into the mass spectrometer via a heated nebuliser interface in negative mode. 4-nitroaniline and [^13C]6-4-nitroaniline were detected using single ion monitoring of the [M-H]^− ions at the mass to charge ratio of m/z 137 and 143 respectively. The method is described above.
The method is validated over the range 0.0500 to 10.0 μM for 4-nitroaniline based on the analysis of a 100 μL plasma sample. Quality control samples at concentrations of 0.100, 2.00 and 8.00 μM 4-nitroaniline were included to determine the acceptability of each analysis batch. The limit of quantification (LOQ) of the method is 0.0500 μM 4-nitroaniline for a 100 μL aliquot of plasma.

For `COC(=O)CCNC(=O)[C@H](CC(C)C)NC(=O)[C@@H](NC(=O)CNC(=O)[C@H](CC(C)C)NC(=O)[C@@H]1CCCN1C(C)=O)Nc1ccc([N+](=O)[O-])cc1` [Example 1.1, Methyl 1-acetyl-L-prolyl-L-leucylglycyl-α-R-(4-nitrophenylamino)-glycyl-L-leucyl-β-alaninate], the 4-nitroaniline concentration (COPD patients, visit 3, zymosan 0 μg) was 0.128 μM and 0.111 μM and 0.124 μM and 0.212 μM and 0.0914 μM and 0.162 μM and 0.139 μM and 0.138 μM and 0.114 μM and 0.137 μM (2×) and 0.115 μM and 0.0647 μM and 0.243 μM and 0.0851 μM and 0.0527 μM and 0.118 μM and 0.165 μM and 0.140 μM and 0.0827 μM, the 4-nitroaniline concentration (COPD patients, visit 3, zymosan 50 μg) was 1.05 μM (2×) and 2.06 μM and 2.19 μM and 1.59 μM and 1.37 μM and 1.20 μM and 1.89 μM and 2.48 μM and 2.00 μM and 2.89 μM and 1.55 μM and 2.01 μM and 2.71 μM and 0.927 μM and 0.281 μM and 0.969 μM and 1.00 μM and 1.30 μM and 1.01 μM and the 4-nitroaniline concentration (COPD patients, visit 3, zymosan 300 μg) was 2.59 µM and 4.99 µM and 4.83 µM and 3.53 µM and 4.29 µM and 2.10 µM and 3.29 µM and 5.21 µM and 2.27 µM and 3.73 µM and 5.39 µM and 4.39 µM and 3.91 µM and 6.38 µM and 2.01 µM and 1.17 µM and 2.52 µM and 2.41 µM and 2.95 µM and 3.26 µM. For the same compound, the 4-nitroaniline concentration (COPD patients, visit 3, zymosan 600 μg) was 2.82 μM and 5.53 μM (2×) and 5.39 μM and 4.37 μM and 5.06 μM and 2.57 μM and 4.58 μM and 5.75 μM and 2.92 μM (2×) and 4.74 μM and 5.89 μM and 4.14 μM and 7.73 μM and 1.82 μM and 3.46 μM and 3.45 μM and 3.90 μM and 4.10 μM, the 4-nitroaniline concentration (COPD patients, visit 3, zymosan 900 μg) was 3.11 µM and 6.55 µM and 5.89 µM and 4.66 µM and 5.97 µM and 2.88 µM and 4.97 µM and 6.29 µM and 3.33 µM and 5.36 µM and 6.13 µM and 6.16 µM and 4.50 µM and 8.39 µM and 3.07 µM and 1.82 µM and 3.95 µM and 3.83 µM and 3.96 µM and 4.64 µM and the 4-nitroaniline concentration (COPD patients, visit 3, zymosan 1200 μg) was 3.21 µM and 6.14 µM and 5.62 µM and 4.58 µM and 5.89 µM and 2.58 µM and 5.06 µM and 6.10 µM and 2.67 µM and 4.38 µM and 6.04 µM and 5.92 µM and 4.15 µM and 8.93 µM and 3.02 µM and 1.95 µM and 3.88 µM and 4.14 µM and 4.66 µM and 4.63 µM. For the same compound, the 4-nitroaniline concentration (COPD patients, visit 4, zymosan 0 μg) was 0.179 μM and 0.0951 μM and 0.138 μM and 0.243 μM and 0.110 μM (2×) and 0.217 μM and 0.125 μM (2×) and 0.115 μM and 0.143 μM and 0.134 μM and 0.185 μM and 0.0984 μM and 0.219 μM and 0.0972 μM and 0.109 μM and 0.157 μM and 0.139 μM and 0.0844 μM, the 4-nitroaniline concentration (COPD patients, visit 4, zymosan 50 μg) was 1.48 μM (2×) and 1.25 μM and 1.88 μM and 1.84 μM and 2.11 μM and 1.34 μM and 2.16 μM and 1.58 μM and 1.20 μM and 1.67 μM and 1.18 μM (2×) and 1.44 μM and 1.87 μM and 2.33 μM and 2.15 μM and 0.675 μM and 0.589 μM and 0.891 μM and the 4-nitroaniline concentration (COPD patients, visit 4, zymosan 300 μg) was 3.18 µM and 2.95 µM and 3.95 µM and 3.77 µM and 3.61 µM and 2.63 µM and 3.71 µM and 3.74 µM and 3.01 µM and 4.12 µM and 4.14 µM and 4.77 µM and 4.03 µM and 5.86 µM and 0.789 µM and 1.95 µM and 1.56 µM and 2.27 µM and 2.79 µM and 3.35 µM. For the same compound, the 4-nitroaniline concentration (COPD patients, visit 4, zymosan 600 μg) was 3.67 µM and 3.49 µM and 4.75 µM and 4.63 µM and 4.45 µM and 2.99 µM and 4.23 µM and 4.58 µM and 3.55 µM and 4.62 µM and 5.28 µM and 5.90 µM and 4.83 µM and 6.52 µM and 2.76 µM and 2.62 µM and 2.18 µM and 2.82 µM and 3.01 µM and 3.79 µM, the 4-nitroaniline concentration (COPD patients, visit 4, zymosan 900 μg) was 4.18 μM (2×) and 3.70 μM and 5.05 μM and 5.26 μM and 4.58 μM and 3.30 μM and 4.42 μM and 4.90 μM and 4.06 μM and 4.94 μM and 5.13 μM and 6.15 μM and 5.14 μM and 7.33 μM and 3.18 μM and 2.91 μM and 2.99 μM and 3.14 μM and 3.59 μM and the 4-nitroaniline concentration (COPD patients, visit 4, zymosan 1200 μg) was 3.79 µM and 3.85 µM and 4.85 µM and 4.91 µM and 4.43 µM and 3.47 µM and 4.87 µM and 5.22 µM and 4.06 µM and 5.42 µM and 5.50 µM and 6.49 µM and 5.33 µM and 7.40 µM and 3.39 µM and 3.49 µM and 3.16 µM and 3.42 µM and 3.62 µM and 4.22 µM. The 4-nitroaniline concentration (healthy volunteers, visit 4, zymosan 0 μg) was 0.111 µM and 0.0866 µM and 0.152 µM, the 4-nitroaniline concentration (healthy volunteers, visit 4, zymosan 50 μg) was 0.796 µM and 0.751 µM and 1.00 µM and the 4-nitroaniline concentration (healthy volunteers, visit 4, zymosan 300 μg) was 2.28 µM and 1.65 µM and 2.77 µM. The 4-nitroaniline concentration (healthy volunteers, visit 4, zymosan 600 μg) was 2.91 µM and 1.92 µM and 2.96 µM, the 4-nitroaniline concentration (healthy volunteers, visit 4, zymosan 900 μg) was 3.43 µM and 2.09 µM and 3.17 µM and the 4-nitroaniline concentration (healthy volunteers, visit 4, zymosan 1200 μg) was 3.60 µM and 3.38 µM and 2.26 µM and 3.20 µM. The 4-nitroaniline concentration (smokers, visit 3, zymosan 0 μg) was 0.113 µM and 0.107 µM and 0.109 µM and 0.0861 µM and 0.176 µM and 0.239 µM and 0.0779 µM and 0.339 µM and 0.116 µM and 0.131 µM, the 4-nitroaniline concentration (smokers, visit 3, zymosan 50 μg) was 0.769 µM and 1.11 µM and 1.12 µM and 0.862 µM and 3.00 µM and 1.02 µM and 0.406 µM and 3.01 µM and 2.15 µM and 1.10 µM and the 4-nitroaniline concentration (smokers, visit 3, zymosan 300 μg) was 2.05 μM and 2.56 μM and 3.14 μM and 2.21 μM and 6.36 μM and 2.68 μM (2×) and 1.18 μM and 6.45 μM and 4.19 μM. The 4-nitroaniline concentration (smokers, visit 3, zymosan 600 μg) was 2.31 µM and 3.48 µM and 3.72 µM and 2.75 µM and 7.70 µM and 3.39 µM and 1.70 µM and 7.79 µM and 4.93 µM and 3.27 µM, the 4-nitroaniline concentration (smokers, visit 3, zymosan 900 μg) was 2.68 µM and 3.61 µM and 3.91 µM and 3.16 µM and 8.43 µM and 3.82 µM and 1.82 µM and 8.61 µM and 5.09 µM and 3.36 µM and the 4-nitroaniline concentration (smokers, visit 3, zymosan 1200 μg) was 2.43 µM and 3.68 µM and 4.25 µM and 3.23 µM and 8.30 µM and 4.01 µM and 1.64 µM and 8.66 µM and 5.13 µM and 3.37 µM. The 4-nitroaniline concentration (smokers, visit 4, zymosan 0 μg) was 0.0729 µM and 0.0973 µM and 0.182 µM and 0.108 µM and 0.128 µM and 0.195 µM and 0.0588 µM and 0.279 µM and 0.131 µM and 0.165 µM, the 4-nitroaniline concentration (smokers, visit 4, zymosan 50 μg) was 1.17 µM and 1.92 µM and 1.54 µM and 0.742 µM and 1.52 µM and 1.21 µM and 0.341 µM and 4.57 µM and 2.16 µM and 1.45 µM and the 4-nitroaniline concentration (smokers, visit 4, zymosan 300 μg) was 2.29 µM and 3.43 µM and 2.99 µM and 2.30 µM and 4.52 µM and 2.59 µM and 0.91 µM and 7.93 µM and 3.57 µM and 2.65 µM. For the same compound, the 4-nitroaniline concentration (smokers, visit 4, zymosan 600 μg) was 2.48 µM and 3.64 µM and 3.41 µM and 2.54 µM and 5.50 µM and 3.43 µM and 1.1 µM and 8.74 µM and 3.92 µM and 2.87 µM, the 4-nitroaniline concentration (smokers, visit 4, zymosan 900 μg) was 2.86 µM and 4.06 µM and 3.56 µM and 3.18 µM and 6.30 µM and 3.86 µM and 1.38 µM and 9.12 µM and 4.48 µM and 3.10 µM and the 4-nitroaniline concentration (smokers, visit 4, zymosan 1200 μg) was 2.82 µM and 4.22 µM and 3.53 µM and 3.71 µM and 6.49 µM and 4.23 µM and 1.42 µM and 9.95 µM and 4.81 µM and 2.95 µM.
